The record followed here is the supplement of paper PMC10849652.

Sequences of proteins named here, by UniProt entry; tags and fusion partners are left off. A change or cut given only in a name is not applied to a line headed by its entry.
UniProt Q5JTD0: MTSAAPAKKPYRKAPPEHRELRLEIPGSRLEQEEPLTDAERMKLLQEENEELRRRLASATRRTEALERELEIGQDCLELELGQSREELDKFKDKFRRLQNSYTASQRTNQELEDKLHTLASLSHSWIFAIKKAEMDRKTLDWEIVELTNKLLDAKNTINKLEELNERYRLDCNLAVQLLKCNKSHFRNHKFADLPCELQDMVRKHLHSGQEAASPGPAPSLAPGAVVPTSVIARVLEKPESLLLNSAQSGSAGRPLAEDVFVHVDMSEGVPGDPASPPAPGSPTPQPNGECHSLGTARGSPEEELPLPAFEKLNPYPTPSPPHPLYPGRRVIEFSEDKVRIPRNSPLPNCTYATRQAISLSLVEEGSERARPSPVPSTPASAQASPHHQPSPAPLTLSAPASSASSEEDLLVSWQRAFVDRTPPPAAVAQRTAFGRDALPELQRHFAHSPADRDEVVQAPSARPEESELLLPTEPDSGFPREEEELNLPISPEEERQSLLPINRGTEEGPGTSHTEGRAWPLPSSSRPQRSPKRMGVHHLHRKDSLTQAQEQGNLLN
UniProt Q6I9Y2: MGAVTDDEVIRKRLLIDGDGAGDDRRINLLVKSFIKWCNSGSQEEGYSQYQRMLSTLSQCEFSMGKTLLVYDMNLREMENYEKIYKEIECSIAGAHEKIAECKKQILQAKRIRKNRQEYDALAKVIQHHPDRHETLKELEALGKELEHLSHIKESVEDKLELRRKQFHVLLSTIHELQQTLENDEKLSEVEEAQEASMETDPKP
UniProt O95551: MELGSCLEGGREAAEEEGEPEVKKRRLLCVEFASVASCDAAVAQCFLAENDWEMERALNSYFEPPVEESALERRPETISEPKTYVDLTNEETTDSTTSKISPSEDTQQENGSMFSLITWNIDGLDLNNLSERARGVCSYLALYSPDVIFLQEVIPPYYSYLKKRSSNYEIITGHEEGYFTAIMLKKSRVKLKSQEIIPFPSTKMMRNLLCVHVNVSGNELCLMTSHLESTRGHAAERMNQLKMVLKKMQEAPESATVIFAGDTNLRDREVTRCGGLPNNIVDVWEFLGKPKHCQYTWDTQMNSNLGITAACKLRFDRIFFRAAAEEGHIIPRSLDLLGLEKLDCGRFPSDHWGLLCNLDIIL
UniProt Q9NPL8: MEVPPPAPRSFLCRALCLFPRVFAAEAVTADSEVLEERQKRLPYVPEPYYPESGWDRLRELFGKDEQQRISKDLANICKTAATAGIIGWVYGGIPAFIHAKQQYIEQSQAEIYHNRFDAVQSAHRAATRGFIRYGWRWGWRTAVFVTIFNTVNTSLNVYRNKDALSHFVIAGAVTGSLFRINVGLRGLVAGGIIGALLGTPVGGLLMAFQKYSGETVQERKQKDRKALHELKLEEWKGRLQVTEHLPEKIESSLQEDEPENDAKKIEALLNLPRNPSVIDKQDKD
UniProt O00142: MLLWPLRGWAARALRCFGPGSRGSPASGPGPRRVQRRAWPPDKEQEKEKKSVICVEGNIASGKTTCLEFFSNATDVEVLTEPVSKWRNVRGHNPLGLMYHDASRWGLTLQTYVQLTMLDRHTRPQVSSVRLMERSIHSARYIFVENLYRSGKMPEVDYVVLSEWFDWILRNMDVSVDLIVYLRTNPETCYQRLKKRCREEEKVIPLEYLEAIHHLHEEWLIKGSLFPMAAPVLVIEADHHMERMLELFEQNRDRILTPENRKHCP
UniProt O14925: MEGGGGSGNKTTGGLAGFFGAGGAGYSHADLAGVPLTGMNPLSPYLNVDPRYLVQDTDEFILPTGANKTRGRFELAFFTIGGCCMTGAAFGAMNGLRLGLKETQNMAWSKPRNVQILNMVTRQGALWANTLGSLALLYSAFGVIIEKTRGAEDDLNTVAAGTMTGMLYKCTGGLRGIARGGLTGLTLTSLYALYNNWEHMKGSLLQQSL
UniProt Q8NFU7: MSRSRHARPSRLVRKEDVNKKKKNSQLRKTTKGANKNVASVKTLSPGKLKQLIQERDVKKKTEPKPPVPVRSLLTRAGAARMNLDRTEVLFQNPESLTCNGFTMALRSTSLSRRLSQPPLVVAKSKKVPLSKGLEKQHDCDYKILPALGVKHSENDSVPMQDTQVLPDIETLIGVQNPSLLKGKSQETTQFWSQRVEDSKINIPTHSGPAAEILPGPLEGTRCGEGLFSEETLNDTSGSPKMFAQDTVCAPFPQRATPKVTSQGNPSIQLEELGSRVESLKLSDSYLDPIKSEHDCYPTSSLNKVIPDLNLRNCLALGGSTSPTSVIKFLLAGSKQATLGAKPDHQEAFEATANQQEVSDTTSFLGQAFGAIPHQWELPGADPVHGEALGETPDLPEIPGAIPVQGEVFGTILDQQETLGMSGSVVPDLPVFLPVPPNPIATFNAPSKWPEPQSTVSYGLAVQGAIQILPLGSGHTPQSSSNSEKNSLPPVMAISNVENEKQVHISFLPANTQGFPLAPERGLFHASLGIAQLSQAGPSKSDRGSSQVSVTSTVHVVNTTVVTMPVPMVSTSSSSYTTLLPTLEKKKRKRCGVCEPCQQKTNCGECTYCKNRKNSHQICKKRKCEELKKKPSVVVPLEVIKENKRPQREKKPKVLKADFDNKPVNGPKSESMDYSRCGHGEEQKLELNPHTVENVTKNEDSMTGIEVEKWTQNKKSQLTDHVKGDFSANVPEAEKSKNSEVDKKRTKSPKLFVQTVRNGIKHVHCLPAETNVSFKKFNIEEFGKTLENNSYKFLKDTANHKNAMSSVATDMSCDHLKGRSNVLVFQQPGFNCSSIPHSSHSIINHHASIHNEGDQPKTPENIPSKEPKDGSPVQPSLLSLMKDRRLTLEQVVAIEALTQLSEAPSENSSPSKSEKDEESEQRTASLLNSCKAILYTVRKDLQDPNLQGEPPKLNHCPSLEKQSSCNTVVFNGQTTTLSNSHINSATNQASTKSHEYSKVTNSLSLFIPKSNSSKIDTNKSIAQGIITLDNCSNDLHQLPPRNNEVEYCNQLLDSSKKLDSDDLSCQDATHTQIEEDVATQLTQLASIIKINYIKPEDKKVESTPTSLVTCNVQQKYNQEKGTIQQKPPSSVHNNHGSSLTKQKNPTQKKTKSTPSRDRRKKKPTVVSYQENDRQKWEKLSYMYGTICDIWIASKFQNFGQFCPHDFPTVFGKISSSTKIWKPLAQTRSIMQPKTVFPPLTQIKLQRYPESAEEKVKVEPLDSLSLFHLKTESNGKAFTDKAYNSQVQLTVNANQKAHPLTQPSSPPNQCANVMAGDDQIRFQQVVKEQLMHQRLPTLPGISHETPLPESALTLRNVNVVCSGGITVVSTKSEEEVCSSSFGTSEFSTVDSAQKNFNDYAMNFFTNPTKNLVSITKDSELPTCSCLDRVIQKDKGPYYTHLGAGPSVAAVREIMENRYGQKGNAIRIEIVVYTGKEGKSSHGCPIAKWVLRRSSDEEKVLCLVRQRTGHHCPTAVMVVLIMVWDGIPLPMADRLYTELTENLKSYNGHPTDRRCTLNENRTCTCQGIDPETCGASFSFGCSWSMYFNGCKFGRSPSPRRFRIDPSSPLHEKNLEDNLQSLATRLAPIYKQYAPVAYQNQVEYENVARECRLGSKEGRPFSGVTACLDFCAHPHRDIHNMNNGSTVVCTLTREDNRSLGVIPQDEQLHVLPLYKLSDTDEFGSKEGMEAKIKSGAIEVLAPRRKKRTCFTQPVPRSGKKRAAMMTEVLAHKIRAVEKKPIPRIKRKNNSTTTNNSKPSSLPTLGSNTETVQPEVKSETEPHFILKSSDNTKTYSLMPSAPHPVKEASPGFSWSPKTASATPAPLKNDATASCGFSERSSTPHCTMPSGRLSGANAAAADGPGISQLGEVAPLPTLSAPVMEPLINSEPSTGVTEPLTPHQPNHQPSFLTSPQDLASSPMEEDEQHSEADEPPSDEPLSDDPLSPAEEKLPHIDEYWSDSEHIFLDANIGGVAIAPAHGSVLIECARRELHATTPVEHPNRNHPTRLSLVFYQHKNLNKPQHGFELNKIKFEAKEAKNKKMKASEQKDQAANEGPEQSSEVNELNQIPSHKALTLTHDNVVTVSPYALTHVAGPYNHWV
UniProt P17987, whole entry, looked up: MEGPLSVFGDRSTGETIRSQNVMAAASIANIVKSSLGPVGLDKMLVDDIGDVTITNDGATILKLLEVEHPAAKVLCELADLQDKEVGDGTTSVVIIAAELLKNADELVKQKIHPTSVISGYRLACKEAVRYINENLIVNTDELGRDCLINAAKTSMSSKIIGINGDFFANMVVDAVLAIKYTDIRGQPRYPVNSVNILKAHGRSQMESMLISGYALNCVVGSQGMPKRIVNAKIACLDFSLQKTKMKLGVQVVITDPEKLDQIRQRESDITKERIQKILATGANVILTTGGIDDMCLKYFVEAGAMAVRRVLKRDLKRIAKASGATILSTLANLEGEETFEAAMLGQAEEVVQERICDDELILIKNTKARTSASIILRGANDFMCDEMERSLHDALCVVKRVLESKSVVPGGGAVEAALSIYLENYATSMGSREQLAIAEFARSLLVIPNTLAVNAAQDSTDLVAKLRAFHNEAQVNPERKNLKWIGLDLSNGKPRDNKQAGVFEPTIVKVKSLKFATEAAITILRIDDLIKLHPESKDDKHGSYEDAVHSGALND
UniProt O60343: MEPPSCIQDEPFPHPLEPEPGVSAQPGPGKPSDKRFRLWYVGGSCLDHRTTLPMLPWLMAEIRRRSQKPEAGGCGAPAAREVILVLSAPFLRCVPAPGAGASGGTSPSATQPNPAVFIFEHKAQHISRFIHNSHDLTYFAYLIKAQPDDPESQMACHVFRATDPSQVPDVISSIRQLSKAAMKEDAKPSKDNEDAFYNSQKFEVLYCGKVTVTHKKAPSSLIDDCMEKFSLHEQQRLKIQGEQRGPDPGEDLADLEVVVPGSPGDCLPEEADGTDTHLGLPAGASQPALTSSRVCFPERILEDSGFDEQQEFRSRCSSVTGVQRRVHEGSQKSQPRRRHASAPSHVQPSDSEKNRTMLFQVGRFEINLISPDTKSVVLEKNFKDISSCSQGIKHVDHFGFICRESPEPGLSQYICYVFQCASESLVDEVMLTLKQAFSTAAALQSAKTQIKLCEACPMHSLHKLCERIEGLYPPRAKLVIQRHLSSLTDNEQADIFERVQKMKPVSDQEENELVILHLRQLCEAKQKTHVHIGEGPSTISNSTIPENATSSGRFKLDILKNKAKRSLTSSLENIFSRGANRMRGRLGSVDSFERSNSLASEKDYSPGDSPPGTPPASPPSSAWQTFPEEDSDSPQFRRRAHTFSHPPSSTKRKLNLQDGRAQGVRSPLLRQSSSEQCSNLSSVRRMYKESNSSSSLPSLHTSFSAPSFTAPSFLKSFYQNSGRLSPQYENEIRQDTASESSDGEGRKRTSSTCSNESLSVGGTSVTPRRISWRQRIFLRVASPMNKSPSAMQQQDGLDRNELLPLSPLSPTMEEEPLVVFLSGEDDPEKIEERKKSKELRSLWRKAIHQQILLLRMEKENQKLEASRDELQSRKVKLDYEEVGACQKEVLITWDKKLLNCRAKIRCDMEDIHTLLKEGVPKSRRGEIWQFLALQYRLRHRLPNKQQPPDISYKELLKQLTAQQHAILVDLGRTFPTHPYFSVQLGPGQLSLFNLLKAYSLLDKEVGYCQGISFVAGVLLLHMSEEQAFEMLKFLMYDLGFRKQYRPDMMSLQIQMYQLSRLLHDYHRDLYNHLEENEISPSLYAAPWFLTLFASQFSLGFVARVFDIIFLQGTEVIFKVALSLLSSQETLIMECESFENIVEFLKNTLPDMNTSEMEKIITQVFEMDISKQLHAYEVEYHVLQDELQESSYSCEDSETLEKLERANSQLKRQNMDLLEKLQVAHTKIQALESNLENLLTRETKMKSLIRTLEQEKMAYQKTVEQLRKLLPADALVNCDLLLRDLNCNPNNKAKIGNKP
UniProt Q9BZK7: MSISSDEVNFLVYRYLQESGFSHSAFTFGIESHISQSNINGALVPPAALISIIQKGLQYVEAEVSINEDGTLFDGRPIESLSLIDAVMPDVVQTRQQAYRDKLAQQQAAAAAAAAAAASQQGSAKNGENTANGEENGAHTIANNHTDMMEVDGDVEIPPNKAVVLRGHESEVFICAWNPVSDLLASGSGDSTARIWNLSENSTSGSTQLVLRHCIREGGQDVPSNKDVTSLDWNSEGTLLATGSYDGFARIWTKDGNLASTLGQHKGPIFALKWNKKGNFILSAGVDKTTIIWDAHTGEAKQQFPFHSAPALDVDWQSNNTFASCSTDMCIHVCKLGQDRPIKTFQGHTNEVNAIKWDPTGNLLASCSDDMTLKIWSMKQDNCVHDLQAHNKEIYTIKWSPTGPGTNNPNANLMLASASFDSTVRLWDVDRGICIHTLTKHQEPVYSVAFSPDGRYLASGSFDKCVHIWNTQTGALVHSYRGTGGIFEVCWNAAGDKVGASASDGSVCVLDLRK
UniProt Q96BS2: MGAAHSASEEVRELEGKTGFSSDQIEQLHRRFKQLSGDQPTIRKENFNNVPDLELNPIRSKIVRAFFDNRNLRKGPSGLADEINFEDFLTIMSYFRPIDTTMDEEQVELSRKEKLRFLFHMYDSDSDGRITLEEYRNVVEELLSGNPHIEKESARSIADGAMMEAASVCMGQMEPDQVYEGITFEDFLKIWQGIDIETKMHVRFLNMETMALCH

This is one part of the list.

Compound in this assay: CC1=C(C2=C(C=C1)C(=O)C3=CC=CC=C3N2CCCN)C
The assay is described as follows: log2 fold change, soluble protein after heating vs DMSO (PISA); higher = thermal stabilisation; K562 cells, 10 uM, 30 min; active = over 0.2 and 3.5 SD of the protein, either way, in both replicates (recomputed). The procedure, abridged:
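K562 cells at 2×10^6 cells/mL were treated with 10 μM compound for 30 min. Aliquots were heated for 3 min across 48°C-58°C, pooled, and extracted in PBS with 0.5% NP-40 at 4°C; soluble protein was the supernatant after 21,000xg for 90 min. Soluble protein was quantified by TMTpro 16plex LC-MS/MS with channel sums equalised, and reported as log2 fold change in thermal stability against DMSO controls, with values from duplicates.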
Turning to TJAP1 (UniProt Q5JTD0), the log2 fold change was inactive: -0.164.
Turning to TCEA1 (UniProt P23193), the log2 fold change is inactive: 0.011.
In the case of TIMM50 isoform 2 (UniProt Q3ZCQ8), the log2 fold change was inactive: 0.032.
In the case of THUMPD1 (UniProt Q9NXG2), the log2 fold change is inactive: 0.027.
Then THBS1 (UniProt P07996), with inactive: -0.11.
As for TCIRG1 (UniProt Q13488), the log2 fold change was inactive: 0.03.
Take TCF3 (UniProt P15923): the log2 fold change was inactive: 0.026.
Then THOC1 (UniProt Q96FV9), with inactive: 0.023.
The figure for THOC2 (UniProt Q8NI27) is inactive: 0.156.
THNSL1 (UniProt Q8IYQ7): the log2 fold change is inactive: -0.003.
The figure for TBC1D22B (UniProt Q9NU19) is inactive: -0.03; for TLCD4 (UniProt Q96MV1) it is inactive: -0.002; for THOC7 (UniProt Q6I9Y2) it is inactive: 0.017.
Then TKFC (UniProt Q3LXA3), with inactive: 0.041; and TGFBR3 (UniProt Q03167), with inactive: -0.083; and TKT isoform 2 (UniProt P29401), with inactive: 0.005.
Then TDRKH (UniProt Q9Y2W6), with inactive: 0.049; and TGOLN2 isoform 7 (UniProt O43493), with inactive: -0.073; and TBCC (UniProt Q15814), with inactive: 0.015.
As to TF (UniProt P02787), the log2 fold change was inactive: -0.205.
Then TDP2 isoform 2 (UniProt O95551), with inactive: -0.1; and TERF2 (UniProt Q15554), with inactive: -0.009; and THOC6 (UniProt Q86W42), with inactive: 0.071.
With TBCB (UniProt Q99426), the log2 fold change was inactive: -0.036.
The figure for TIMMDC1 (UniProt Q9NPL8) is inactive: -0.054; for TBCE (UniProt Q15813) it is inactive: 0.004; for TK2 isoform 6 (UniProt O00142) it is inactive: 0.078.
Then TIMM23 (UniProt O14925), with inactive: -0.036.
Then TET1 (UniProt Q8NFU7), with inactive: 0.184.
For TCP1 (UniProt P17987), the log2 fold change was inactive: 0.023.
Regarding TBL1X (UniProt O60907), the log2 fold change was inactive: 0.007.
Then TFB1M (UniProt Q8WVM0), with inactive: -0.267.
Then TBL3 (UniProt Q12788), with inactive: 0.079; and TIMM8B (UniProt Q9Y5J9), with inactive: 0.357.
The figure for TBC1D4 (UniProt O60343) is inactive: -0.031; for TGM2 (UniProt P21980) it is inactive: -0.004.
As to TBL1XR1 (UniProt Q9BZK7), the log2 fold change was inactive: 0.015.
On to TESC (UniProt Q96BS2), for which the log2 fold change was inactive: -0.277.
Then TCF12 isoform 3 (UniProt Q99081), with inactive: -0.023.
